From paper PMC10224957 come the findings set out here.

These are yes or no findings as the source states them, for the method shown. In cells and extracts the contact can be indirect. These calls come from enrichment with a bait or labelling near it, and not all partners need be listed.

This assay addresses T1, Juxtaposed with another zinc finger protein 1 (JAZF1) (human (endogenous in immortalized HESCs)) (UniProt Q86VZ6).
T1 sequence: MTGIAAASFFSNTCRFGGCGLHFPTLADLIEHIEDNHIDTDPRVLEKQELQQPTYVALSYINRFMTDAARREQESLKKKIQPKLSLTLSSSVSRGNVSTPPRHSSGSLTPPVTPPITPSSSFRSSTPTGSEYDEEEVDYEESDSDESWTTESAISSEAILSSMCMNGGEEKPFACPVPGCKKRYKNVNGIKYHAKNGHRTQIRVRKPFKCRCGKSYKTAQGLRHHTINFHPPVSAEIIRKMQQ
Nature of the assay: affinity purification with mass spectrometry; IP with JAZF1-conjugated protein A + G magnetic beads from immortalized HESCs treated with MPA and cAMP for 6 days; bands that differ between JAZF1 and IgG control cut from SDS-PAGE; LC-MS.

B1: Purβ (protein, UniProt Q96QR8 1-312)
chain: MADGDSGSERGGGGGPCGFQPASRGGGEQETQELASKRLDIQNKRFYLDVKQNAKGRFLKIAEVGAGGSKSRLTLSMAVAAEFRDSLGDFIEHYAQLGPSSPEQLAAGAEEGGGPRRALKSEFLVRENRKYYLDLKENQRGRFLRIRQTVNRGGGGFGAGPGPGGLQSGQTIALPAQGLIEFRDALAKLIDDYGGEDDELAGGPGGGAGGPGGGLYGELPEGTSITVDSKRFFFDVGCNKYGVFLRVSEVKPSYRNAITVPFKAWGKFGGAFCRYADEMKEIQERQRDKLYERRGGGSGGGEESEGEEVDED
With B1, the binding result is given as “binds”.
